# The supplement of paper PMC12462457
# ± gives the standard deviation of the averaged measurements. Some of the results follow. Single values are uncertain here, since repeats match poorly.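 Cell counts came from imaging DAPI-stained nuclei, excluding as dead any cells lacking phalloidin-stained cytoplasm. Counts per well were normalized to the median vehicle-well count on that plate, and the values were averaged over two replicate plates.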
# Tested on: OVCAR8
# Experiment: cell count relative to DMSO vehicle (fold change); higher = more surviving senescent cells (less killing)
# Conditions: senescence inducer: cisplatin 10 µM 48 h, then 6 d recovery (CP senescent), exposure time 24 h
Structure (SMILES),cell count (compound dose 1 µM),cell count (compound dose 5 µM)
Cc1nnc(NC(=O)c2nc(S(=O)(=O)Cc3ccc(F)cc3)ncc2Cl)s1,0.892 ± 0.083,0.686 ± 0.13
C[C@H](Nc1ccc2c(c1)OCCn1cc(N3C(=O)OC[C@H]3C(F)F)nc1-2)C(N)=O,1.09 ± 0.18,1.23 ± 0.076
CC1(C)C=C(CN2C/C(=C\c3ccc(F)cc3)C(=O)/C(=C/c3ccc(F)cc3)C2)C(C)(C)N1O,1.22 ± 0.068,1.25 ± 0.24
COc1ccc(-c2cc(Nc3ccnc(N4CCOCC4)n3)on2)cc1,1.18 ± 0.04,0.751 ± 0.042
COc1ccc(/C=C/c2cc(O)cc(O[C@@H]3O[C@H](CO)[C@@H](O)[C@H](O)[C@H]3O)c2)cc1O [Rhapontin],1.03 ± 0.052,0.915 ± 0.045
Cc1c2c(nn1C)CSCc1cc(n(C)n1)CSc1cc(c3ccccc3c1)OCCCc1c(C(=O)O)n(C)c3c-2c(Cl)ccc13,0.767 ± 0.096,0.62 ± 0.073
COc1ccc(-c2ccc3cc(C(=O)O)ccc3c2)cc1C12CC3CC(CC(C3)C1)C2,0.825 ± 0.11,0.608 ± 0.18
C=CCNC1=C2C[C@@H](C)C[C@H](OC)[C@H](O)[C@@H](C)/C=C(\C)[C@H](OC(N)=O)[C@@H](OC)/C=C\C=C(/C)C(=O)NC(=CC1=O)C2=O [Tanespimycin],0.875 ± 0.09,0.371 ± 0.014
CNc1nc(C)c(-c2nc(Nc3cccc(S(N)(=O)=O)c3)ncc2F)s1,0.892 ± 0.19,0.742 ± 0.14
CN1C(=O)NC(Cc2c[nH]c3c(Cl)cccc23)C1=O (racemic) [Necrostatin 2 (racemate)],1.05 ± 0.064,0.856 ± 0.32
Cc1ccc(C(=O)Nc2sc(Nc3ccccc3)nc2C(N)=O)cc1,1.08 ± 0.11,1.2 ± 0.068
O=C(/C=C/c1ccc(O)c(O)c1)O[C@H](Cc1ccc(O)c(O)c1)C(=O)O [Rosmarinic acid],1.09 ± 0.22,0.781 ± 0.24
C=C[C@](C)(O)CC[C@@H]1[C@@]2(C)CCCC(C)(C)[C@@H]2CC[C@@]1(C)O [Sclareol],1.29 ± 0.059,0.99 ± 0.14
O=C(O)CC(C(=O)O)n1c(O)c(C2=c3cc(Br)ccc3=NC2=O)sc1=S (centres undefined),0.8 ± 0.17,0.797 ± 0.021
COc1cc(CNC(=O)CCCC/C=C/C(C)C)ccc1O,0.928 ± 0.071,0.794 ± 0.024
C[C@]12CC[C@@H]3c4ccc(O)cc4C[C@@H](CCCCCCCCC[S+]([O-])CCCC(F)(F)C(F)(F)F)[C@H]3[C@@H]1CC[C@@H]2O (some centres undefined) [Fulvestrant],0.811 ± 0.083,0.844 ± 0.12
COc1ccc(-c2cc(=O)c3c(O)c(OC)c(OC)cc3o2)cc1 [Salvigenin],1.18 ± 0.012,0.95 ± 0.16
NC1(Cc2ccc(Cl)cc2)CCN(c2ncnc3[nH]ccc23)CC1,1.21 ± 0.18,0.911 ± 0.15
CC(C)c1c2cc(-c3ccnc(NC4CCC(NC5CCOCC5)CC4)n3)ccc2nn1C (centres undefined),0.978 ± 0.011,0.9395 ± 0.0092
CCOC(=O)C1=C(N)Oc2ccc(Br)cc2C1C(C#N)C(=O)OCC (centres undefined),0.818 ± 0.11,0.954 ± 0.16
CC(=O)c1c(Nc2ccc(Cl)cc2)[nH]c2c(Br)ccc(Cl)c2c1=O,1.33 ± 0.03,1.33 ± 0.19

# Complete entries as entered above:
# C=C[C@](C)(O)CC[C@@H]1[C@@]2(C)CCCC(C)(C)[C@@H]2CC[C@@]1(C)O [Sclareol] is listed as cell count (compound dose 1 µM): 1.29 ± 0.059; cell count (compound dose 5 µM): 0.99 ± 0.14
# COc1ccc(/C=C/c2cc(O)cc(O[C@@H]3O[C@H](CO)[C@@H](O)[C@H](O)[C@H]3O)c2)cc1O [Rhapontin] is listed as cell count (compound dose 1 µM): 1.03 ± 0.052; cell count (compound dose 5 µM): 0.915 ± 0.045

# (continued)

Structure (SMILES),cell count (compound dose 1 µM),cell count (compound dose 5 µM)
CCn1c2ccccc2c2cc(CNC)ccc21,0.859 ± 0.086,0.762 ± 0.32
CCCOC(=O)c1ccc(O)cc1 [Propylparaben],0.688 ± 0.044,0.621 ± 0.29
O=C(NCCN1CCOCC1)Nc1nc2ccc(Sc3nnc4ccc(-c5ccc(F)cc5)nn34)cc2s1,0.952 ± 0.15,0.947 ± 0.13
COc1cc2ccc(=O)oc2c(O)c1O [Fraxetin],0.938 ± 0.15,0.694 ± 0.19
CCOC(=O)C1=C(C)NC(=S)NC1c1cccc(O)c1 (centres undefined) [Monastrol],0.8615 ± 0.0078,0.879 ± 0.25
CC(C)(C)c1cc(NC(=O)Nc2ccc(-c3cn4c(n3)sc3cc(OCCN5CCOCC5)ccc34)cc2)no1 [Quizartinib (AC220)],1 ± 0.064,0.903 ± 0.17
CN1CCN(c2ccc(-c3cccc(CN4CCOCC4)c3)cc2NC(=O)c2c[nH]c(=O)cc2C(F)(F)F)CC1,0.942 ± 0.098,0.894 ± 0.15
CC1(C)Cc2c(-c3ccccc3)c(-c3ccc(Cl)cc3)c(CC(=O)O)n2C1 [Licofelone],0.818 ± 0.16,0.804 ± 0.075
CCOC(=O)/C=C(C)/C=C/C=C(C)/C=C/c1c(C)cc(OC)c(C)c1C [Etretinate],0.77 ± 0.19,0.809 ± 0.043
COc1ccc(S(=O)(=O)Nc2cc(-c3csc(C#N)c3)ccc2C)cc1,0.694 ± 0.017,0.458 ± 0.17
O=c1c(O)c(-c2ccc(O)cc2)oc2cc(O)cc(O)c12,0.939 ± 0.086,0.666 ± 0.2
CCCc1ccc(OCC(=O)N(Cc2nc(-c3cccnc3)no2)C(C)C)cc1,0.768 ± 0.47,0.99 ± 0.099
CC#CCn1c(N2CCC[C@@H](N)C2)nc2c1c(=O)n(Cc1nc(C)c3ccccc3n1)c(=O)n2C [Linagliptin],0.867 ± 0.06,0.525 ± 0.29
C[C@@H]1CC[C@@]2(OC1)O[C@H]1C[C@H]3[C@@H]4CC=C5C[C@@H](O[C@@H]6O[C@H](CO)[C@@H](O[C@@H]7O[C@@H](C)[C@H](O[C@@H]8O[C@@H](C)[C@H](O)[C@@H](O)[C@H]8O)[C@@H](O)[C@H]7O)[C@H](O)[C@H]6O[C@@H]6O[C@@H](C)[C@H](O)[C@@H](O)[C@H]6O)CC[C@]5(C)[C@H]4CC[C@]3(C)[C@@]1(O)[C@@H]2C [Paris saponin VII],0.942 ± 0.023,0.0415 ± 0.05
CC(C)(CO)[C@@H](O)C(=O)NCCC(=O)O [D-Pantothenic acid (sodium)],1.21 ± 0.051,1.201 ± 0.0014
CC[C@@H]1C(=O)N(C)c2cnc(Nc3ccc(C(=O)N[C@H]4CC[C@H](N5CCN(CC6CC6)CC5)CC4)cc3OC)nc2N1C(C)C [Volasertib],0.815 ± 0.027,0.686 ± 0.0085
C=C1C(=O)O[C@@]23[C@H]1CC[C@@H](C)[C@@H]2CC[C@@]1(C)O[C@@H]31 [Arteannuin B],0.655 ± 0.042,0.945 ± 0.061
Cc1nc(C(=O)NCC(=O)O)c(O)c2ccc(Oc3ccccc3)cc12 [Roxadustat (FG-4592)],0.984 ± 0.076,0.88 ± 0.034
O=C(Nc1cnn2ccc(N3CCC[C@@H]3c3cc(F)ccc3F)nc12)N1CC[C@H](O)C1 [Larotrectinib],0.903 ± 0.025,0.894 ± 0.13
CC[C@H](NC(=O)[C@H](C)NC)C(=O)N1C[C@@H](O)C[C@H]1Cc1c(-c2[nH]c3cc(F)ccc3c2C[C@@H]2C[C@H](O)CN2C(=O)[C@H](CC)NC(=O)[C@H](C)NC)[nH]c2cc(F)ccc12 [Birinapant],0.371 ± 0.013,0.216 ± 0.08
CN1C(=O)N[C@H](Cc2c[nH]c3c(Cl)cccc23)C1=O [Necrostatin 2],1.31 ± 0.15,1.5 ± 0.36
